From paper PMC5070881
Positions count from the first letter of the chain named. Results are given in words; binding and its absence hold for the method and conditions named. For some of these results: Binding seen in cells or lysates may run through a third protein. Some entries that bind do so weakly or less than the wild type. For some of these results: Sequences can lack the tags named with a protein.

Columns and labels:
[1] = target: T1, TBSV p33 replication protein (split ubiquitin bait) (Tomato bushy stunt virus) (UniProt P15962); experiment: two-hybrid; split ubiquitin membrane yeast two-hybrid (MYTH) in wt (NMY51) yeast; bait p33 or p36 co-expressed with prey Vps21p forms; growth read-out
T1 sequence: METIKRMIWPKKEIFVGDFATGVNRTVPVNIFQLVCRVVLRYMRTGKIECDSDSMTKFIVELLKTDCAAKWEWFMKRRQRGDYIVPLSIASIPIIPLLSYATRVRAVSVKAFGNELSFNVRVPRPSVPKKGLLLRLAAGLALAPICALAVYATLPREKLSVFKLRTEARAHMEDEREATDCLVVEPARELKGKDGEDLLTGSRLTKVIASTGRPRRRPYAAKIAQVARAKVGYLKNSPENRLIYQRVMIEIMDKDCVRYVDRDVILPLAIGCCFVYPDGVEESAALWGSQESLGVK

[2] = target: T2, TBSV p33-cYFP (Tomato bushy stunt virus) (UniProt P15962); experiment: split reporter; BiFC in N. benthamiana leaves; nYFP-AtRab5B agro-infiltrated with p33-cYFP or p36-cYFP (OD600 0.4 each), confocal microscopy 2 d after agro-infiltration, GFP channel
T2 sequence: T1 sequence

In the case of “Vps21S21L (split ubiquitin prey) (from UniProt P36017 1-210)”, the binding [1] is reported as “binds”.

B1: Vps21Q66L (split ubiquitin prey) (protein, UniProt P36017 1-210)
chain: MNTSVTSIKLVLLGEAAVGKSSIVLRFVSNDFAENKEPTIGAAFLTQRVTINEHTVKFEIWDTAGLERFASLAPMYYRNAQAALVVYDVTKPQSFIKARHWVKELHEQASKDIIIALVGNKIDMLQEGGERKVAREEGEKLAEEKGLLFFETSAKTGENVNDVFLGIGEKIPLKTAEEQNSASNERESNNQRVDLNAANDGTSANSACSC
In the case of B1, the binding [1] is reported as “binds”.

B2: nYFP-AtRab5B (protein, UniProt Q9SN68 1-200)
chain: MAAAGNKSINAKLVLLGDVGAGKSSLVLRFVKDQFVEFQESTIGAAFFSQTLAVNDATVKFEIWDTAGQERYHSLAPMYYRGAAAAIIVFDVTNQASFERAKKWVQELQAQGNPNMVMALAGNKSDLLDARKVTAEDAQTYAQENGLFFMETSAKTATNVKEIFYEIARRLPRVQPTENPTGMVLPDRAMDRAVSSSCCA
B2 was tested, and the binding [2] was “binds”.

B3: Vps21p, wild type (split ubiquitin prey) (protein, UniProt P36017 1-210)
chain: B1 chain with L66Q
With B3 the binding [1] was “binds”.
